Results from patent publication US20220160802A1, “METHODS AND COMPOSITIONS FOR PROMOTING HEALTH IN A SUBJECT” (COMMONWEALTH SCIENTIFIC AND INDUSTRIAL RESEARCH ORGANISATION, priority 2019, published 2022).
Where “and” joins values, the source holds several entries; their conditions need not be identical. Equal entries are not always repeated.

Experiment: Untargeted LC-MS metabolite analysis of fermented and non-fermented broccoli puree
Conditions: fermented vs non-fermented broccoli puree

**Q.** With `C=C(CC[C@@H](C)[C@H]1CC[C@@]2(C)[C@@H]3CC[C@H]4[C@H](C)C(=O)CC[C@@]45C[C@@]35CC[C@]12C)C(C)C` [cycloeucalenone] as the molecule, how does the FC read?
**A.** 3.4926

**Q.** Which FC does the source give for `Cc1cn([C@H]2C[C@H](O)[C@@H](COP(=O)(O)OP(=O)(O)O)O2)c(=O)[nH]c1=O` [dTDP] here?
**A.** 5.6526

**Q.** With `Cc1cn([C@H]2C[C@H](O)[C@@H](COP(=O)(O)O)O2)c(=O)[nH]c1=O` [dTMP] as the molecule, how does the FC read?
**A.** 6.9501

**Q.** With `COc1cc(CCCO)ccc1O[C@@H]1O[C@H](CO)[C@@H](O)[C@H](O)[C@H]1O` [dihydroconiferyl alcohol glucoside] as the molecule, how does the FC read?
**A.** 5.6248

**Q.** Which FC does the source give for `C=CC1=CC[C@@H]2[C@H](CC[C@@H]3C(C)(C)CCC[C@@]23C)[C@@H]1C` [ent-cassa-12,15-diene] here?
**A.** 0.3328

**Q.** With `C=C(CO)[C@H]1C/C=C(\C)CC/C=C(\C)CC1` [germacra-110,4,1113-trien-12-ol] as the molecule, how does the FC read?
**A.** 0.2351

**Q.** Which FC does the source give for `O=S(=O)(O)ON=C(Cc1c[nH]c2ccccc12)S[C@@H]1O[C@H](CO)[C@@H](O)[C@H](O)[C@H]1O` [glucobrassicin] here?
**A.** 26.746

**Q.** Which FC does the source give for `CSCCC/C(=N\OS(=O)(=O)O)S[C@@H]1O[C@H](CO)[C@@H](O)[C@H](O)[C@H]1O` [glucoiberverin] here?
**A.** 0.08732

**Q.** With `O=C(OCCC/C(=N\OS(=O)(=O)O)S[C@@H]1O[C@H](CO)[C@@H](O)[C@H](O)[C@H]1O)c1ccccc1` [glucomalcommin] as the molecule, how does the FC read?
**A.** 4.1855

**Q.** Which FC does the source give for `C[S+]([O-])CCCC/C(=N\OS(=O)(=O)O)S[C@@H]1O[C@H](CO)[C@@H](O)[C@H](O)[C@H]1O` (stereo partly drawn) [glucoraphanin] here?
**A.** 27 and 27.475

**Q.** Which FC does the source give for `O=S(=O)(O)ON=C(Cc1ccccc1)S[C@@H]1O[C@H](CO)[C@@H](O)[C@H](O)[C@H]1O` [glucotropeolin] here?
**A.** 0.4795

**Q.** For `NCC(=O)O` [glycine], which FC is on record?
**A.** 0.2359

**Q.** For `O=CC(=O)O` [glyoxylate], which FC is on record?
**A.** 16.835

**Q.** For `O=C(O)Cc1cc(O)ccc1O` [homogentisate], which FC is on record?
**A.** 7.6608

**Q.** Which FC does the source give for `O=C1C=c2cc[nH]c2=CC1=O` [indole-5,6-quinone] here?
**A.** 2.6937

**Q.** For `S=C=NCc1c[nH]c2ccccc12` [indolylmethylisothiocyanate], which FC is on record?
**A.** 7.7651

**Q.** Which FC does the source give for `COc1cc(-c2oc3cc(O)cc(O)c3c(=O)c2O)cc(O)c1O` [laricitrin] here?
**A.** 0.4281

**Q.** Which FC does the source give for `CCCCCCCCCCCC(=O)O` [laurate] here?
**A.** 0.3396

**Q.** For `O=C(O)/C=C/c1cccc(O)c1` [m-Coumaric acid], which FC is on record?
**A.** 2.187

**Q.** Which FC does the source give for `O=C(O)CC(=O)O` [malonate] here?
**A.** 9.0975

**Q.** Which FC does the source give for `Nc1nc2c(c(=O)[nH]1)N[C@H]1C(S)=C(S)[C@@H](COP(=O)(O)O)O[C@H]1N2` [molybdopterin] here?
**A.** 149.51

**Q.** For `CCCCCc1cc(O)cc(O)c1` [olivetol], which FC is on record?
**A.** 0.1309

**Q.** For `O=C(O)c1cc(=O)[nH]c(=O)n1[C@@H]1O[C@H](COP(=O)(O)O)[C@@H](O)[C@H]1O` [orotidine 5′-phosphate], which FC is on record?
**A.** 14.737

**Q.** With `O=C(/C=C/c1ccc(O)cc1)Cc1cc(O)cc(=O)o1` [p-coumaroyltriacetic acid lactone] as the molecule, how does the FC read?
**A.** 0.1844

**Q.** Which FC does the source give for `COc1ccc(Cc2nccc3cc(OC)c(OC)cc23)cc1OC` [papaverine] here?
**A.** 0.3665

**Q.** With `NCCCN` [propane-1,3-diamine] as the molecule, how does the FC read?
**A.** 5.5793

**Q.** Which FC does the source give for `Cc1ncc(COP(=O)(O)O)c(C=O)c1O` [pyridoxal 5′-phosphate] here?
**A.** 7.0734

**Q.** With `Cc1ncc(CO)c(C=O)c1O` [pyridoxal] as the molecule, how does the FC read?
**A.** 3.0278

**Q.** With `O=C(O)C1CSC(=S)N1` (stereo not drawn) [raphanusamate] as the molecule, how does the FC read?
**A.** 5.5593

**Q.** Which FC does the source give for `O=C(O)c1ccccc1O` [salicylate] here?
**A.** 13.59

**Q.** With `CC1(C)C[C@@H](O)[C@]2(C)CC[C@]3(C)C(=CC[C@@H]4[C@@]5(C)CC[C@H](O)[C@](C)(CO)[C@@H]5CC[C@]43C)[C@@H]2C1` [soyasapogenol B] as the molecule, how does the FC read?
**A.** 0.3584

**Q.** For `C/C(=C\CNc1ncnc2nc[nH]c12)CO` [trans-zeatin], which FC is on record?
**A.** 0.3921

**Q.** Which FC does the source give for `O=c1[nH]c(=O)c2[nH]c(=O)[nH]c2[nH]1` [urate] here?
**A.** 7.2329

**Q.** For `C=CC(O)CC(=NOS(=O)(=O)O)S[C@@H]1O[C@H](CO)[C@@H](O)[C@H](O)[C@H]1O` (stereo partly drawn) [xi-progoitrin], which FC is on record?
**A.** 5.091

**Q.** For --Epicatechin 3-O-gallate, which FC is on record?
**A.** 2.4481

**Q.** With E,E-geranyllinalool as the molecule, how does the FC read?
**A.** 0.01825

**Q.** With Hydroxycaffeic acid as the molecule, how does the FC read?
**A.** 0.4323

**Q.** For indole-3-acetyl-glutamate, which FC is on record?
**A.** 0.1547

**Q.** With indole-3-acetyl-glutamine as the molecule, how does the FC read?
**A.** 0.2028

**Q.** With indole-3-acetyl-phenylalanine as the molecule, how does the FC read?
**A.** 17.44

**Q.** For monodehydroascorbate radical, which FC is on record?
**A.** 2.0677

**Q.** With pheophorbide a as the molecule, how does the FC read?
**A.** 6.3398
